We go through two compounds from patent publication US9669050B2, “Composition for prevention or treatment of hyperlipidemia, fatty liver or obesity” (BENEBIOSIS CO., LTD., priority 2008, dated 2017).

Series [1] concerns high-fat diet SD rats. Briefly: Body weight change, food and water intake of high-fat diet rats. Format: in vivo, rat. The note with it: orally administered every day. As to the method:
4 week-old Sprague-Dawley (SD) rats were purchased from Dooyeul Biotech (Korea). Water was allowed freely and commercially available pellet feed (Dooyeul Biotech, Korea) was given for a week. The rats were grouped into four groups (six per each group) as follows: ND, normal diet group (normal group); HD, high-fat (60% fat) diet [purchased from Research Diets (New Brunswick, USA)] group (control group); and HD+SL (1 mg/kg) and HD+SL (5 mg/kg), high-fat diet groups treated with SL (Sigma). 3′-SL or deionized water (DW) was orally administered every day. The mice were kept in cages for 7 weeks and sacrificed after fasting for 12 hours. Food intake and body weight change were measured every 5 days.

For series [2], the system named is high-fat diet C56BL/6 male mice. Briefly: Body weight change and food intake of high-fat diet mice. Format: in vivo, mouse. The settings on record: peritoneal injection every day. As to the method: 4 week-old C56BL/6 male mice were purchased from Dooyeul Biotech (Korea). Water was allowed freely and commercially available pellet feed (Dooyeul Biotech, Korea) was given for a week. The mice were grouped into six groups (six per each group) as follows: ND, normal diet group (normal group); HD, high-fat (60% fat) diet [purchased from Research Diets (New Brunswick, USA)] group (control group); and HD+SL (0.1 mg/kg), HD+SL (0.5 mg/kg), HD+SL (1.0 mg/kg) and HD+SL (5.0 mg/kg), high-fat diet groups treated with sialyllactose (SL, Sigma). Sialyllactose or PBS was administered every day by peritoneal injection. The mice were kept in cages for 50 days and sacrificed after fasting for 12 hours. Food intake and body weight change were measured every 7 days. 3′-Sialyllactose (3′-N-acetylneuraminyl-D-lactose, 3′-sialyl-D-lactose or α-NeuNAc-(2→3)-β-D-Gal-(1→4)-D-Glc) and 6′-sialyllactose (6′-N-acetylneuraminyl-lactose, 6′-sialyl-D-lactose or α-NeuNAc-(2→6)-β-D-Gal-(1→4)-D-Glc) were purchased from Sigma-Aldrich.

On to `CC(=O)N[C@H]1[C@H]([C@H](O)[C@H](O)CO)O[C@@](O[C@H]2[C@@H](O)[C@@H](CO)O[C@@H](O[C@H]3[C@H](O)[C@@H](O)C(O)O[C@@H]3CO)[C@@H]2O)(C(=O)O)C[C@@H]1O` (stereo partly drawn) [3′-SL, α-NeuNAc-(2→3)-β-D-Gal-(1→4)-D-Glc], for which the Food intake worked out at 23.46 ± 0.82 g/day in series [1] (HD + SL 1.0 mg/kg); 24.08 ± 1.22 g/day in series [1] (HD + SL 5.0 mg/kg); 2.31 ± 0.13 in series [2] (HD + SL 0.1 mg/kg); 2.30 ± 0.17 in series [2] (HD + SL 0.5 mg/kg); 2.28 ± 0.13 in series [2] (HD + SL 1.0 mg/kg); 2.27 ± 0.18 in series [2] (HD + SL 5.0 mg/kg). The Water intake in series [1] (HD + SL 1.0 mg/kg) is listed as 54.27 ± 2.53 mL/day; in series [1] (HD + SL 5.0 mg/kg), 55.36 ± 3.32 mL/day.

Regarding `CC(=O)N[C@H]1[C@H]([C@H](O)[C@H](O)CO)O[C@@](OC[C@H]2O[C@@H](O[C@H]3[C@H](O)[C@@H](O)[C@H](O)O[C@@H]3CO)[C@H](O)[C@@H](O)[C@H]2O)(C(=O)O)C[C@@H]1O` [6′-SL, α-NeuNAc-(2→6)-β-D-Gal-(1→4)-D-Glc], the Food intake in series [2] (HD + SL 0.1 mg/kg) is on record as 2.68 ± 0.13(*); in series [2] (HD + SL 0.5 mg/kg) it was 2.56 ± 0.21(*); in series [2] (HD + SL 1.0 mg/kg) it was 2.31 ± 0.21(*); in series [2] (HD + SL 5.0 mg/kg), 2.62 ± 0.11(*).
